Here are results for one molecule from article PMC6856647.

The target in this test is T1, ΔNp63α (UniProt Q9H3D4).
T1 sequence: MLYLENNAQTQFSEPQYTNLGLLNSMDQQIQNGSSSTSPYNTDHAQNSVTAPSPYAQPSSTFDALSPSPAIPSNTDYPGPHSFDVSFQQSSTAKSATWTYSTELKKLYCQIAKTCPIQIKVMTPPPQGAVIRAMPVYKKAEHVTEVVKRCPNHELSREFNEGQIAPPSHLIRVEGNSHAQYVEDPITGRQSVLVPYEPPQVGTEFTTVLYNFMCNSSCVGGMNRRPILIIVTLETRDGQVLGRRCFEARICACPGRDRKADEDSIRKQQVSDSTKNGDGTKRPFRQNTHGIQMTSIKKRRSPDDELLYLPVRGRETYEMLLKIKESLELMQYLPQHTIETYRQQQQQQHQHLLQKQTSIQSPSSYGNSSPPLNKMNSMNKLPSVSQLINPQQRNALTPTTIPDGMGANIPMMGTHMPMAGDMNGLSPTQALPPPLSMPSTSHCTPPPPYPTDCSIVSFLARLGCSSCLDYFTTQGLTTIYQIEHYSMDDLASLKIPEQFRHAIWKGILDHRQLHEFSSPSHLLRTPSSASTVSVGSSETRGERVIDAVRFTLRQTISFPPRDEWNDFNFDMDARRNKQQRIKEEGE
Briefly: co-IP; HCT116-p53(-/-) cells co-transfected with the indicated plasmids, MG132 10 uM for 4 h; lysed in RIPA buffer with 10% glycerol; immunoprecipitated with anti-p63 or anti-p53 (control); western blot.

These are yes or no findings as the source states them, for the method shown. In cells and extracts the contact can be indirect.

B1: TRIM8 (protein, UniProt Q9BZR9 1-551)
chain: MAENWKNCFEEELICPICLHVFVEPVQLPCKHNFCRGCIGEAWAKDSGLVRCPECNQAYNQKPGLEKNLKLTNIVEKFNALHVEKPPAALHCVFCRRGPPLPAQKVCLRCEAPCCQSHVQTHLQQPSTARGHLLVEADDVRAWSCPQHNAYRLYHCEAEQVAVCQYCCYYSGAHQGHSVCDVEIRRNEIRKMLMKQQDRLEEREQDIEDQLYKLESDKRLVEEKVNQLKEEVRLQYEKLHQLLDEDLRQTVEVLDKAQAKFCSENAAQALHLGERMQEAKKLLGSLQLLFDKTEDVSFMKNTKSVKILMDRTQTCTSSSLSPTKIGHLNSKLFLNEVAKKEKQLRKMLEGPFSTPVPFLQSVPLYPCGVSSSGAEKRKHSTAFPEASFLETSSGPVGGQYGAAGTASGEGQSGQPLGPCSSTQHLVALPGGAQPVHSSPVFPPSQYPNGSAAQQPMLPQYGGRKILVCSVDNCYCSSVANHGGHQPYPRSGHFPWTVPSQEYSHPLPPTPSVPQSLPSLAVRDWLDASQQPGHQDFYRVYGQPSTKHYVTS
As to B1, the binding result is “no binding”.
